Results deposited as PubChem BioAssay AID1508597 (Cure First, 2020).
This is a random part of the about 2,100 reagents, in one setting of the screen. 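Calls flag viability under 80% in either arm, not effects specific to rucaparib; the reference for percent is not stated.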 Some reagents were tested in more than one well and are listed for each. The record does not give: the 100% reference.

Test: 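Knock-downs altering ovarian cancer cell survival with or without PARP inhibitor rucaparib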 (primary screen)
System: human ovarian carcinoma lines grown from tumours: OCI-P5x (papillary serous) and OCI-C5x (clear cell)
Reagent: siRNA pool against human genes, 1.25 pmol siRNA per well
Timing: 72 h or 96 h, depending on the cell culture
Conditions: rucaparib 20 µM (about IC30) or vehicle, present until read-out
Rucaparib or vehicle: Vehicle
Cell line: OCI-C5x (clear cell)
Detection: 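Luminescent ATP-based viability assay read 72 or 96 h after transfection, depending on culture, given as normalised percent viability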
Reading the numbers: viability, normalised: higher = more viable cells remaining
Hit rule: 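Active when normalised viability falls below 80 percent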
Calls: active = viability under 80%; inactive = viability 80% or more

| gene knocked down | technical replicate | viability, normalised (%) | Outcome |
| --- | --- | --- | --- |
| PIAS1 | 1 | 22.9 | active |
| PIAS1 | 2 | 18.3 | active |
| PIAS1 | 3 | 20.3 | active |
| TBL1XR1 | 1 | 44.8 | active |
| TBL1XR1 | 1 | 58.8 | active |
| TBL1XR1 | 2 | 37.2 | active |
| TBL1XR1 | 2 | 63.3 | active |
| TBL1XR1 | 3 | 36.6 | active |
| TBL1XR1 | 3 | 47.4 | active |
| MTREX | 1 | 39.7 | active |
| MTREX | 2 | 39.6 | active |
| MTREX | 3 | 23.4 | active |
| KDM6A | 1 | 63.2 | active |
| KDM6A | 2 | 69.5 | active |
| KDM6A | 3 | 64.8 | active |
| EPHA5 | 1 | 64 | active |
| EPHA5 | 2 | 40.2 | active |
| EPHA5 | 3 | 44.6 | active |
| DGKA | 1 | 69.8 | active |
| DGKA | 2 | 38.6 | active |
| DGKA | 3 | 51.3 | active |
| ATM | 1 | 41.7 | active |
| ATM | 1 | 53.2 | active |
| ATM | 2 | 71.1 | active |
| ATM | 2 | 63 | active |
| ATM | 3 | 51.4 | active |
| ATM | 3 | 49.7 | active |
| PRDM6 | 1 | 53.9 | active |
| PRDM6 | 2 | 56.9 | active |
| PRDM6 | 3 | 52.9 | active |
| CHKA | 1 | 58.4 | active |
| CHKA | 2 | 55.8 | active |
| CHKA | 3 | 60.9 | active |
| SMARCAD1 | 1 | 44.7 | active |
| SMARCAD1 | 2 | 37.9 | active |
| SMARCAD1 | 3 | 42.1 | active |
| USP1 | 1 | 46.8 | active |
| USP1 | 2 | 40.2 | active |
| USP1 | 3 | 40.9 | active |
